# Test results as given in patent US20110086089A1, “USE OF P27KIP1 FOR THE PREVENTION AND TREATMENT OF HEART FAILURE” (UNIVERSITY HEALTH NETWORK, priority 2008, published 2011).
# Test system: WT mice
# Assay: Reversal of established Ang II-dependent cardiac hypertrophy (16 days infusion, injections from day 8)
# Assay type: in vivo
# Details: Ang II infusion 16 days; daily i.p. injections 20 mg/kg initiated at day 8
# From the text: FIG. 10 is the experimental treatment protocol. To examine the therapeutic effect of p27 on established cardiac hypertrophy, p27 injections were initiated at 8 days after Ang II-infusion.
# To examine the effect of transduced p27 on established cardiac hypertrophy, mice were chronically infused with Ang II for 16 days and intraperitoneally injected recombinant TAT-conjugated p27ΔPi and beta-galactosidase (β-Gal) proteins starting from day 8. After 16 days of Ang II-infusion, the heart/body weight ratio were increased by 45% compared to saline-infused controls (FIG. 11B; group 7 vs. group 6). […] Transduced p27ΔPi regressed the increase in heart size by 47% as compared to β-Gal control injections (group 3 vs group 4). In Ang II-infused mice treated with p27ΔPi values of left ventricular posterior wall and interventricular septum thickness, LVEDD, LVESD, FS and EF were not significant different compared to saline-infused mice. Thus, p27 can reverse established compensated cardiac hypertrophy without exerting any deleterious effect on cardiac function. […]
# After fixation in paraformaldehyde (4% in PBS, pH 7.4), a transverse midsection (3 μm thickness) was stained with Alexa Fluor® 488-conjugated wheat germ agglutinin for cross sectional measurements. Cardiomycoyte area was determined by planimetry employing ImageJ software. A total of 200 cells were counted in each group.
substance,measurement,value
"TAT-β-Gal: recombinant TAT-conjugated beta-galactosidase, control injections",Body weight,24 ± 1.2 g
same,Heart rate,511 ± 24 b.p.m.
